PubChem BioAssay AID1159578 | Peter MacCallum Cancer Centre | 2015

Screen: 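siRNA pools altering how lymphatic endothelial cells close a scratch wound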 (primary screen)
Cell system: human lymphatic endothelial cells
Reagent: siRNA pool against human genes, 40 nM
Time to read-out: 48 h after transfection
Read-out: 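High-content imaging of dye-stained cells in a scratch assay measures filled wound area and nuclei per well; duplicate means given as ratio to mock and robust z-score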
Direction: migration robust z-score: higher = faster migration into the scratch; nuclei per well: higher = more cells in the well
Hit rule: 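Migration changed when robust z exceeds 2 or falls below -2 and mean nuclei number is at least 3300; otherwise not called changed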
Meaning of the calls: active = migration changed; inactive = no migration change, or too few cells
Here is an unselected part of about 18,000 deposited reagents. About 1,030 of all reagents (5.7%) count as active. 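Inactive calls also include pools with fewer than 3300 nuclei, whose migration was not assessed.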 Raw values are not corrected between plates. Unmarked entries are inactive. Not all columns of the deposit are shown. No sequences are given here.

What is on record for USP37 (ubiquitin specific peptidase 37)?
migration robust z-score: -0.83; migration class with cell-count check: migration z between -2 and 2; enough cells; nuclei per well, duplicate mean: 5588

Which result is listed for PAPLN (papilin, proteoglycan like sulfated glycoprotein)?
migration robust z-score: -1.84; migration class with cell-count check: migration z between -2 and 2; enough cells; nuclei per well, duplicate mean: 5903

Which result is listed for GLIS1 (GLIS family zinc finger 1)?
migration robust z-score: 0.02; migration class with cell-count check: migration z between -2 and 2; enough cells; nuclei per well, duplicate mean: 6434

What did the screen give for GGT5 (gamma-glutamyltransferase 5)?
migration robust z-score: 0.13; migration class with cell-count check: migration z between -2 and 2; enough cells; nuclei per well, duplicate mean: 5102

With SLC30A4, how do the results read?
migration robust z-score: -0.68; migration class with cell-count check: migration z between -2 and 2; enough cells; nuclei per well, duplicate mean: 5122

With FMNL2 (formin like 2), how do the results read?
migration robust z-score: -1.29; migration class with cell-count check: migration z between -2 and 2; enough cells; nuclei per well, duplicate mean: 3692

What did the screen give for KRT6C (keratin 6C)?
migration robust z-score: -0.9; migration class with cell-count check: migration z between -2 and 2; enough cells; nuclei per well, duplicate mean: 6413

How did the screen score TAS1R2 (taste 1 receptor member 2)?
migration robust z-score: -3.31 (active); migration class with cell-count check: migration z below -2; enough cells; nuclei per well, duplicate mean: 3620

With NDST3 (N-deacetylase and N-sulfotransferase 3), what was measured?
migration robust z-score: -1.35; migration class with cell-count check: migration z between -2 and 2; enough cells; nuclei per well, duplicate mean: 4798

How did the screen score PLA2G10 (phospholipase A2 group X)?
migration robust z-score: -1.82; migration class with cell-count check: migration z between -2 and 2; enough cells; nuclei per well, duplicate mean: 4278

With MOB1A (MOB kinase activator 1A), what was measured?
migration robust z-score: 1.74; migration class with cell-count check: migration z between -2 and 2; enough cells; nuclei per well, duplicate mean: 7244

What did the screen give for RNF133 (ring finger protein 133)?
migration robust z-score: 0.16; migration class with cell-count check: migration z between -2 and 2; enough cells; nuclei per well, duplicate mean: 5539

What is on record for DEFB131A (defensin beta 131A)?
migration robust z-score: -0.15; migration class with cell-count check: migration z between -2 and 2; enough cells; nuclei per well, duplicate mean: 6732

How did the screen score NIPAL2 (NIPA like domain containing 2)?
migration robust z-score: 0.15; migration class with cell-count check: migration z between -2 and 2; enough cells; nuclei per well, duplicate mean: 5004
